Results as given in article PMC10873425.
No constants are given. Whether binding was seen depends on the method and setting. Binding seen in cells or lysates may run through a third protein. Some entries that bind do so weakly or less than the wild type. Tags and fused reporters may be left off the sequences shown.

Protein sequences, listed by entry. Tags and fused reporters are not part of them.
UniProt P37238: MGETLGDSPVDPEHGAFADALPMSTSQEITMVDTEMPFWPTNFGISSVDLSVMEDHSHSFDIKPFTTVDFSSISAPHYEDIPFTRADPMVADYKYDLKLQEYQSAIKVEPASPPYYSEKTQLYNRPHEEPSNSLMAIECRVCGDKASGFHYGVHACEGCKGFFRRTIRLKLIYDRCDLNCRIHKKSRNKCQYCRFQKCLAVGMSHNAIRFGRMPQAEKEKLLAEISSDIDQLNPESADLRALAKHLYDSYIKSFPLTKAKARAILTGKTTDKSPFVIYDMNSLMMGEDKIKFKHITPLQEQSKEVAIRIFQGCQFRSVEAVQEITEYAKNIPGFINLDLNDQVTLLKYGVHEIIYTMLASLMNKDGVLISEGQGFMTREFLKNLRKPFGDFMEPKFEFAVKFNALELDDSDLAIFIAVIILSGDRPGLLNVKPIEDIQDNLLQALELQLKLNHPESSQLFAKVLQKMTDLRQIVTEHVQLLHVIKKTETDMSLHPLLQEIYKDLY

Target: T1, HA-tagged NCOA4 (nuclear receptor coactivator 4) (mouse) (UniProt Q5U4H9)
T1 sequence: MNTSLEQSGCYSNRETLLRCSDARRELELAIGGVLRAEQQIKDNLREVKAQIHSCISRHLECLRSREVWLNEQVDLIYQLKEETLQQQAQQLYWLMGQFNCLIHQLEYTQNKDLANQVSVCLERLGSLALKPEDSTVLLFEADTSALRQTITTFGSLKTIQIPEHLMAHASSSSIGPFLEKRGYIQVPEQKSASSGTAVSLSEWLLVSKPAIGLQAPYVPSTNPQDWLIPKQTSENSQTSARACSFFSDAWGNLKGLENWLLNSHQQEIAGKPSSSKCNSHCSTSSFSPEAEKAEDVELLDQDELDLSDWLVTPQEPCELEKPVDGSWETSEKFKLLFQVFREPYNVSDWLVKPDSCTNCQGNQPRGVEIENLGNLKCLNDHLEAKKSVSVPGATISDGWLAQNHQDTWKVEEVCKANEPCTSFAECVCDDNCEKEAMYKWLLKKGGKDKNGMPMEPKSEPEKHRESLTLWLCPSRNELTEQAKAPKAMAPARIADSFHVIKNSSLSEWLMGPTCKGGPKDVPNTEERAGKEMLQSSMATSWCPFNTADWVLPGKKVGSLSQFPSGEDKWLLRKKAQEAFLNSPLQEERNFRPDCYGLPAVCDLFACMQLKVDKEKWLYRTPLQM
Assay: co-IP; Flag-PPARγ and HA-NCOA4 (wild type or ∆NCOA4^LxxAA) expressed in cultured VSMCs (MOVAS); NP-40 lysate, anti-HA-tag or anti-Flag-tag, protein A/G PLUS-Agarose, 4 °C overnight, immunoblotting; with or without rosiglitazone (10 μM)

binding: binds
Substance: Flag-PPARγ (peroxisome proliferator-activated receptor-γ) (from UniProt P37238 1-505)
